In assay [1] the target is biotinylated HLA-C*07:01 with β2m (human). The assay can be described thus: AlphaScreen, peptide titrated on biotinylated HLA + b2m. The conditions noted are these: remark: other sources report otherwise.
Assay [2] shares this target. The description is as above.

Read-outs that look alike come from different tables or passages of the source. No constants are given. Whether binding was seen depends on the method and setting. Binding can be weak; no strength is given.

Consider RPRPVSPSSL (here or on the partner: phosphoserine at 6; biotinylated) [RPRPVsPSSL], for which the binding entry in assay [1] is on record as “no binding”. For the molecule VMIGSPKKV (here or on the partner: phosphoserine at 5; biotinylated) [VMIGsPKKV], the binding result in assay [1] is “no binding”. On the same count and under the same terms, under VLLSPVPEL (here or on the partner: phosphoserine at 4; biotinylated) [VLLsPVPEL] stands “binds”; under GPRSASLLSL (here or on the partner: phosphoserine at 6; phosphoserine at 9; biotinylated) [GPRSAsLLsL], “no binding”. Take KLIDRTESL (here or on the partner: phosphoserine at 8; biotinylated) [KLIDRTEsL]: the binding entry in assay [1] is recorded as “no binding”. As to VLFSSPPQM (phosphoserine at 5) [VLFSsPPQM], the binding entry in assay [2] is recorded as “binds”. For the molecule TPRSPPLGLI (here or on the partner: phosphoserine at 4; biotinylated) [TPRsPPLGLI], the binding entry in assay [1] is listed as “no binding”. On the same count and under the same terms, under SMTRSPPRV (here or on the partner: phosphoserine at 5; biotinylated) [SMTRsPPRV] stands “no binding”; under RQASIELPSM (here or on the partner: phosphoserine at 4; biotinylated) [RQAsIELPSM], “no binding”; under RVASPTSGV (here or on the partner: phosphoserine at 4; biotinylated) [RVAsPTSGV], “binds”.

With SLFSPQNTL (phosphoserine at 4) [SLFsPQNTL], in assay [2], the binding result is “binds”. Turning to SLFGGSVKL (here or on the partner: phosphoserine at 6; biotinylated) [SLFGGsVKL], the binding entry in assay [1] is given as “binds”. On the same count and under the same terms, the result for VLYSPQMAL (here or on the partner: phosphoserine at 4; biotinylated) [VLYsPQMAL] reads “no binding”.

For the molecule RRSSFLQVF (phosphoserine at 4) [RRSsFLQVF], in assay [2], the binding entry is reported as “binds”. Regarding SIMSPEIQL (phosphoserine at 4) [SIMsPEIQL], in assay [2], the binding entry is “binds”.
